Laboratory results reported in paper PMC11839913.
No constants are given. Whether binding was seen depends on the method and setting. In cells and extracts the contact can be indirect. Some entries that bind do so weakly or less than the wild type.

By UniProt entry, the sequences of proteins in these tests, tags left out.
UniProt P19096: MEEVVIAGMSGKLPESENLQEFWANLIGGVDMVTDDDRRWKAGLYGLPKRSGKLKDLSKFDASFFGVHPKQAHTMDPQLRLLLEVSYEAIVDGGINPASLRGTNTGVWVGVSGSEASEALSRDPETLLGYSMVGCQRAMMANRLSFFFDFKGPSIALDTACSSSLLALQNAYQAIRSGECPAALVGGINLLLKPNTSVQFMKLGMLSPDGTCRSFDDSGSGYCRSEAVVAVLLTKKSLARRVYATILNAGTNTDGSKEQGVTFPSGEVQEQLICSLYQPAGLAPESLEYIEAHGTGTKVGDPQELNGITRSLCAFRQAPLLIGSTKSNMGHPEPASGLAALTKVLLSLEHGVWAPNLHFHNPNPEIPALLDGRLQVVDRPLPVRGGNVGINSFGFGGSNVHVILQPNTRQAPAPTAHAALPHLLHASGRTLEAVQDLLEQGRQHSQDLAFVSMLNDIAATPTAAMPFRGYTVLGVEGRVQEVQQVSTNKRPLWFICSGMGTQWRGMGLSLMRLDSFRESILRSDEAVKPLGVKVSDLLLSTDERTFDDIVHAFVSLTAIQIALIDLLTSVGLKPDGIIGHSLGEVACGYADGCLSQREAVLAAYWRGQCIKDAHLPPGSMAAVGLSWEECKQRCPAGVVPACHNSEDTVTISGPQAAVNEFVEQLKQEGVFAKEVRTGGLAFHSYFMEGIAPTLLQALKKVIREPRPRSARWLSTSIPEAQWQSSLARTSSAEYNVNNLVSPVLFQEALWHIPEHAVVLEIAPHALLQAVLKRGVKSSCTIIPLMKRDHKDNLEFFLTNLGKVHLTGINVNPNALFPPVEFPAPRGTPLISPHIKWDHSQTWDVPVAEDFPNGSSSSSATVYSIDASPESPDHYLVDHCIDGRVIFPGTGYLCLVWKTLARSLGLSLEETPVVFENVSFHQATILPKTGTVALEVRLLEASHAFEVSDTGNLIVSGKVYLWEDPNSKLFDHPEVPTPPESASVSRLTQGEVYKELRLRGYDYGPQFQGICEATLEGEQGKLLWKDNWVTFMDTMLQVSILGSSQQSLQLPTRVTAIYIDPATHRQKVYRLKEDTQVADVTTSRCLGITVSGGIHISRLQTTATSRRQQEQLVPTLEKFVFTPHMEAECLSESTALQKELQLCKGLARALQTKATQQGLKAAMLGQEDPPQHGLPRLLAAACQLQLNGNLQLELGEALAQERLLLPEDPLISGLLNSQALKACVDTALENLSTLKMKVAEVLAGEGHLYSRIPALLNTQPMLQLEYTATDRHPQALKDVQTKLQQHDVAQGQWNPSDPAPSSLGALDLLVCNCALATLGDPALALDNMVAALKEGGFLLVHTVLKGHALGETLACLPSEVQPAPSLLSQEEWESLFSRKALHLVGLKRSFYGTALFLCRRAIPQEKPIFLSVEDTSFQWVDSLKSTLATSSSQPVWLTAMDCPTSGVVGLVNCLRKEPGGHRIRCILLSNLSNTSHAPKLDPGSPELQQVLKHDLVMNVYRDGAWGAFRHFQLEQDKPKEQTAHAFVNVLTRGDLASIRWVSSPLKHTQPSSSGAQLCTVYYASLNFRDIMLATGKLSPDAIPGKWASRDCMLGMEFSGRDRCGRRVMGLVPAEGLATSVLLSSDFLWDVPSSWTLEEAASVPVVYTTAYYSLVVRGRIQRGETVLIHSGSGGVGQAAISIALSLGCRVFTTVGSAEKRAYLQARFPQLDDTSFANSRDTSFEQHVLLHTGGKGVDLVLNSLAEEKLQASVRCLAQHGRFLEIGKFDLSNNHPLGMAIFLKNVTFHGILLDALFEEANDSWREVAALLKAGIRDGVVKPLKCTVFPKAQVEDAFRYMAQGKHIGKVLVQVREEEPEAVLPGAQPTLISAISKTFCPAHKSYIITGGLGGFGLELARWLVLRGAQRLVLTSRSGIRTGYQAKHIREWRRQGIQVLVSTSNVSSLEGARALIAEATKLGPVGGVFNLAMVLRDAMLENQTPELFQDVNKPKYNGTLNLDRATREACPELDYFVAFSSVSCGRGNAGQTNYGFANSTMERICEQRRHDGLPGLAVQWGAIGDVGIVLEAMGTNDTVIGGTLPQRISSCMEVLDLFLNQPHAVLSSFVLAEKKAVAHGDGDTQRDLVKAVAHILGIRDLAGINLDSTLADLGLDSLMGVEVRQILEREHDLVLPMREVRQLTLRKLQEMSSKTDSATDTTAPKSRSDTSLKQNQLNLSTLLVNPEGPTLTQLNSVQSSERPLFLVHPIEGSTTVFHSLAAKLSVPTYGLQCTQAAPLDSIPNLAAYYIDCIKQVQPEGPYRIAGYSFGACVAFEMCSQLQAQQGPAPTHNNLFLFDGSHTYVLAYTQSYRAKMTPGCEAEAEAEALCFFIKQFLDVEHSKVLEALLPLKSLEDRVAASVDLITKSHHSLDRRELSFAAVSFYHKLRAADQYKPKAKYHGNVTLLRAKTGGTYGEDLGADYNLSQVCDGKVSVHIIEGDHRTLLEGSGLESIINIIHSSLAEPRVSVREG

Assays:
[1] = molecular target: endogenous R172H mutp53 (p53R172H/R172H MEFs) (mouse (endogenous in MEFs)) (UniProt P02340); assay: co-IP; endogenous FASN and p53 in cell lysates; anti-FASN (sc55580) and anti-p53 (sc126) antibodies, mouse IgG as negative control; Western blot
[2] = molecular target: endogenous wild-type p53 (p53+/+ MEFs) (mouse (endogenous in MEFs)) (UniProt P02340); assay: as above

binding [1]: binds | binding [2]: no binding
Substance: endogenous FASN (mouse embryonic fibroblasts) (from UniProt P19096 1-2504) (enzyme)
